PubChem BioAssay AID652272 | Drosophila RNAi Screening Center, 2013

Test: 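Genome-wide knock-down search for components of Hedgehog signalling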 (primary screen)
Cells: Drosophila clone 8 (Cl8) cells
Reagent: long dsRNA against Drosophila genes
Detection: 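Plate reader light from a firefly reporter under a ptc promoter fragment that responds to Hedgehog, with Renilla light as transfection reference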
Direction: firefly Hh reporter signal: higher = more ptc reporter light; Renilla reference signal: higher = more Renilla control light
Rule for the call: 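Hit when the z-score averaged over two replicates is under -2 or over +3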
Calls: active = hit: reporter lowered or raised; inactive = not a hit
The deposit covers about 21,000 reagents; this is an unselected part of those with a known target gene and a result. Of all reagents, 503 (2.4%) are marked active. 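Raw plate light values, not normalised; calls rest on replicate z-scores that were not deposited; hits include reporter decreases as well as increases.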 A number with no mark means an inactive call. A plus sign joins genes that one reagent is predicted to hit. No sequences are given here. Not stated in the record: the amount of reagent, the time to read-out.

Nct (Nicastrin) [DRSC16172]
- firefly Hh reporter signal, replicate 1: 1.22e5
- firefly Hh reporter signal, replicate 2: 55581
- Renilla reference signal, replicate 1: 4864
- Renilla reference signal, replicate 2: 2512

Mkrn1 (Makorin 1) [DRSC11870]
- firefly Hh reporter signal, replicate 1: 1.38e5
- firefly Hh reporter signal, replicate 2: 1.73e5
- Renilla reference signal, replicate 1: 5004
- Renilla reference signal, replicate 2: 4853

CG3505 [DRSC15489]
- firefly Hh reporter signal, replicate 1: 98010
- firefly Hh reporter signal, replicate 2: 78000
- Renilla reference signal, replicate 1: 4408
- Renilla reference signal, replicate 2: 3033

Sin1 (SAPK-interacting protein 1) [DRSC05965]
- firefly Hh reporter signal, replicate 1: 1.04e5
- firefly Hh reporter signal, replicate 2: 66809
- Renilla reference signal, replicate 1: 4928
- Renilla reference signal, replicate 2: 2928

Tpc1 [DRSC15614]
- firefly Hh reporter signal, replicate 1: 41169
- firefly Hh reporter signal, replicate 2: 81752
- Renilla reference signal, replicate 1: 1984
- Renilla reference signal, replicate 2: 3325

Tpc1 [DRSC16074]
- firefly Hh reporter signal, replicate 1: 1.06e5
- firefly Hh reporter signal, replicate 2: 78500
- Renilla reference signal, replicate 1: 4406
- Renilla reference signal, replicate 2: 2519

spi (spitz) [DRSC03618]
- firefly Hh reporter signal, replicate 1: 78099
- firefly Hh reporter signal, replicate 2: 40940
- Renilla reference signal, replicate 1: 1467
- Renilla reference signal, replicate 2: 3644

CycD (Cyclin D) [DRSC20233]
- firefly Hh reporter signal, replicate 1: 66132
- firefly Hh reporter signal, replicate 2: 1.73e5
- Renilla reference signal, replicate 1: 1946
- Renilla reference signal, replicate 2: 7884

CG11373 [DRSC12170]
- firefly Hh reporter signal, replicate 1: 83622
- firefly Hh reporter signal, replicate 2: 1.18e5
- Renilla reference signal, replicate 1: 3371
- Renilla reference signal, replicate 2: 3344

CG4502 [DRSC02755]
- firefly Hh reporter signal, replicate 1: 97873
- firefly Hh reporter signal, replicate 2: 71430
- Renilla reference signal, replicate 1: 4385
- Renilla reference signal, replicate 2: 3292

CG10171 [DRSC09711]
- firefly Hh reporter signal, replicate 1: 1.42e5
- firefly Hh reporter signal, replicate 2: 78184
- Renilla reference signal, replicate 1: 5809
- Renilla reference signal, replicate 2: 2213

CG17292 [DRSC02594]
- firefly Hh reporter signal, replicate 1: 1.10e5
- firefly Hh reporter signal, replicate 2: 94693
- Renilla reference signal, replicate 1: 4311
- Renilla reference signal, replicate 2: 3305

Pdp1 (PAR-domain protein 1) [DRSC08896]
- firefly Hh reporter signal, replicate 1: 31617
- firefly Hh reporter signal, replicate 2: 49396
- Renilla reference signal, replicate 1: 1040
- Renilla reference signal, replicate 2: 2120

Pdp1 (PAR-domain protein 1) [DRSC08897]
- firefly Hh reporter signal, replicate 1: 23932
- firefly Hh reporter signal, replicate 2: 40752
- Renilla reference signal, replicate 1: 984
- Renilla reference signal, replicate 2: 2838

Pdp1 (PAR-domain protein 1) [DRSC11251]
- firefly Hh reporter signal, replicate 1: 57365
- firefly Hh reporter signal, replicate 2: 57685
- Renilla reference signal, replicate 1: 7700
- Renilla reference signal, replicate 2: 4555

fwe (flower) [DRSC09398]
- firefly Hh reporter signal, replicate 1: 4.20e5
- Renilla reference signal, replicate 1: 9184

fwe (flower) [DRSC10594]
- firefly Hh reporter signal, replicate 1: 1.21e5
- firefly Hh reporter signal, replicate 2: 79168
- Renilla reference signal, replicate 1: 4720
- Renilla reference signal, replicate 2: 2883

CG34187 (retired record) + Trpm [DRSC05543]
- firefly Hh reporter signal, replicate 1: 2.31e5
- firefly Hh reporter signal, replicate 2: 3.49e5
- Renilla reference signal, replicate 1: 5600
- Renilla reference signal, replicate 2: 15895

CG12121 [DRSC17816]
- firefly Hh reporter signal, replicate 1: 73632
- firefly Hh reporter signal, replicate 2: 1.82e5
- Renilla reference signal, replicate 1: 2386
- Renilla reference signal, replicate 2: 7146

Cdc42 (Cell division cycle 42) [DRSC20228]
- firefly Hh reporter signal, replicate 1: 71137
- firefly Hh reporter signal, replicate 2: 2.61e5
- Renilla reference signal, replicate 1: 1092
- Renilla reference signal, replicate 2: 11667

CG14316 [DRSC14795]
- firefly Hh reporter signal, replicate 1: 5.14e5
- firefly Hh reporter signal, replicate 2: 66236
- Renilla reference signal, replicate 1: 26452
- Renilla reference signal, replicate 2: 1881

In a second layout: results already given.
Pdp1 (PAR-domain protein 1) [DRSC08896] | firefly Hh reporter signal, replicate 1 = 31617; firefly Hh reporter signal, replicate 2 = 49396; Renilla reference signal, replicate 1 = 1040; Renilla reference signal, replicate 2 = 2120
Pdp1 (PAR-domain protein 1) [DRSC08897] | firefly Hh reporter signal, replicate 1 = 23932; firefly Hh reporter signal, replicate 2 = 40752; Renilla reference signal, replicate 1 = 984; Renilla reference signal, replicate 2 = 2838
Pdp1 (PAR-domain protein 1) [DRSC11251] | firefly Hh reporter signal, replicate 1 = 57365; firefly Hh reporter signal, replicate 2 = 57685; Renilla reference signal, replicate 1 = 7700; Renilla reference signal, replicate 2 = 4555
